These are yes or no findings as the source states them, for the method shown. Binding seen in cells or lysates may run through a third protein. Here binding means that the protein was enriched with, or labelled near, the bait; the list need not be complete.
Molecular target: T1, HDAC11 (mouse (endogenous in hippocampus)) (UniProt Q91WA3)
T1 sequence: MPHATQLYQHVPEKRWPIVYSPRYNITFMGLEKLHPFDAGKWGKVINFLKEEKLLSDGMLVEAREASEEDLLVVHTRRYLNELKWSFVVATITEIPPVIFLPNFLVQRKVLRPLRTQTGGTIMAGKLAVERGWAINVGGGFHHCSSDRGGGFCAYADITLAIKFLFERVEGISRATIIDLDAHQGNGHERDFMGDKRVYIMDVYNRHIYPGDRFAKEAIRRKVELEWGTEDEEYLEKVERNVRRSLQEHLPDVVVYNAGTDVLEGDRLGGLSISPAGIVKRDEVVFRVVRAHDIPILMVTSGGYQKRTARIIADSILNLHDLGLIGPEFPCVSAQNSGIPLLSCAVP
Test: affinity purification with mass spectrometry

Amino acid sequences for entries named in this document (tags omitted).
UniProt Q60644: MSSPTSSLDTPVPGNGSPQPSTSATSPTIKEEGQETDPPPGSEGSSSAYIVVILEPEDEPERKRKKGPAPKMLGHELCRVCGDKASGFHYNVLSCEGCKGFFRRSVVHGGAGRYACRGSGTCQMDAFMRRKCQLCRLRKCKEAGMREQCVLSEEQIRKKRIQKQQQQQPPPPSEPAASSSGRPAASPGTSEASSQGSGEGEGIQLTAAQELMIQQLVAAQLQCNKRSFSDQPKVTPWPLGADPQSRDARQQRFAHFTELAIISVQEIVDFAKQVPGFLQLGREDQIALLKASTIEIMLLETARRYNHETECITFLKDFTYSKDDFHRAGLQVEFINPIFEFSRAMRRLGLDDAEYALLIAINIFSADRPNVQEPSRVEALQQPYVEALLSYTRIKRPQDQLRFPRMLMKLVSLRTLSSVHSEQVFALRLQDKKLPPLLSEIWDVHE

binding: binds
Substance: NR1H2 (also known as LXRβ) (from UniProt Q60644 1-446)
